These are yes or no findings as the source states them, for the method shown. Binding seen in cells or lysates may run through a third protein. Some results given as binding are weak or reduced against the parent protein; the word gives no strength.

In one assay the target is T1, Hsp26 (Drosophila) (UniProt P02517).
T1 sequence: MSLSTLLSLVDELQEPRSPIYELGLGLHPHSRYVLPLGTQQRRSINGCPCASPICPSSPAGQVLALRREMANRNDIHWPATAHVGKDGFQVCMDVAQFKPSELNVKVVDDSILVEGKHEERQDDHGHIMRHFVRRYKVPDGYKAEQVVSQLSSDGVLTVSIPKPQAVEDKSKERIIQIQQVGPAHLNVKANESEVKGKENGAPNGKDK
As to the kind of experiment: co-IP; homogenised fly heads (Appl > Hsp26 or Appl > Hsp27); lysis buffer 20 mM Tris-HCl pH 7.5, 100 mM NaCl, 0.5 mM EDTA, 0.5% NP40; precleared with normal IgG; IP with rabbit polyclonal anti-Hsp26 or anti-Hsp27 and protein A/G-agarose at 4 °C overnight; washed 6 times with 500 mM NaCl buffer; blot with anti-p53; IgG as control.

The target in the next assay is T2, Hsp27 (Drosophila) (UniProt P02518).
T2 sequence: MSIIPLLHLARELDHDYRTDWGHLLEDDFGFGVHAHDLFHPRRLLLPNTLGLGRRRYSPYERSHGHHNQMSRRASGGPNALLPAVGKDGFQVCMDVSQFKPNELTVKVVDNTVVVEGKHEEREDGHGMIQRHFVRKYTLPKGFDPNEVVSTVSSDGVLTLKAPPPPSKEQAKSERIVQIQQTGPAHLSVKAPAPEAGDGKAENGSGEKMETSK
The assay is described as above.

B1: p53 (protein, UniProt Q9N6D8 1-385)
chain: MYISQPMSWHKESTDSEDDSTEVDIKEDIPKTVEVSGSELTTEPMAFLQGLNSGNLMQFSQQSVLREMMLQDIQIQANTLPKLENHNIGGYCFSMVLDEPPKSLWMYSIPLNKLYIRMNKAFNVDVQFKSKMPIQPLNLRVFLCFSNDVSAPVVRCQNHLSVEPLTANNAKMRESLLRSENPNSVYCGNAQGKGISERFSVVVPLNMSRSVTRSGLTRQTLAFKFVCQNSCIGRKETSLVFCLEKACGDIVGQHVIHVKICTCPKRDRIQDERQLNSKKRKSVPEAAEEDEPSKVRRCIAIKTEDTESNDSRDCDDSAAEWNVSRTPDGDYRLAITCPNKEWLLQSIEGMIKEAAAEVLRNPNQENLRRHANKLLSLKKRAYELP
B1: the binding result in the assay with Hsp26 (Drosophila) and with Hsp27 (Drosophila) was “binds” throughout.

These data come from PMC5515951.
